According to article PMC12381164:
No constants are given. Whether binding was seen depends on the method and setting. In cells and extracts the contact can be indirect. Some results given as binding are weak or reduced against the parent protein; the word gives no strength. For some of these results: Sequences can lack the tags named with a protein.

T1: vascular endothelial zinc finger 1 (VEZF1), endogenous (human (endogenous in Huh7)) (UniProt Q14119)
T1 sequence: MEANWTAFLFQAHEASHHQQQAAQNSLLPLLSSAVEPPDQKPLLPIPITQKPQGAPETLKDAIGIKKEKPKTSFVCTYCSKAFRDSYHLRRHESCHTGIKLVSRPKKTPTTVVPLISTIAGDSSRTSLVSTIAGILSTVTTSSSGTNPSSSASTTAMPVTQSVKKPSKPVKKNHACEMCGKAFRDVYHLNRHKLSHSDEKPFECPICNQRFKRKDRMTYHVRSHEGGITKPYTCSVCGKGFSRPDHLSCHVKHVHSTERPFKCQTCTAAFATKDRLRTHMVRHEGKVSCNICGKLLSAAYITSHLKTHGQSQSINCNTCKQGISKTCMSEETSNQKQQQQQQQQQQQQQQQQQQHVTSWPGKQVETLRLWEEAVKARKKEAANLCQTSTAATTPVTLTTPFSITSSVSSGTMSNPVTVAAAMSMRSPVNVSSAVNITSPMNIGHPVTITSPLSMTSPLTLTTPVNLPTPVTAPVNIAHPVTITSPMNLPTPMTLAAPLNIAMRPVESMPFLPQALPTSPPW

T2: HA-tagged truncated VEZF1 (1-167aa) (UniProt Q14119)
T2 sequence: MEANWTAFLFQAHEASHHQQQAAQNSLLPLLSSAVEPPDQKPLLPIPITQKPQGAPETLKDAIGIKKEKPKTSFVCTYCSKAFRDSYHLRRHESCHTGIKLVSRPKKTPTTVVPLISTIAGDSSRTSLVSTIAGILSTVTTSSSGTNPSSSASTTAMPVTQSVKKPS

T3: HA-tagged truncated VEZF1 (168-361aa) (UniProt Q14119)
T3 sequence: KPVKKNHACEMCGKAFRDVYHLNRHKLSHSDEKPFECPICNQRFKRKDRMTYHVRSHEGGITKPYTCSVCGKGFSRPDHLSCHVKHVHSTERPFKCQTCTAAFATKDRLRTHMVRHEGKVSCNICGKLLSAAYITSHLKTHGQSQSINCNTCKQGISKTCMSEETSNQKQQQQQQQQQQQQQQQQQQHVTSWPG

T4: HA-tagged VEZF1, full-length (UniProt Q14119)
T4 sequence: T1 sequence

B1: O-GlcNAc transferase (OGT), endogenous (enzyme, UniProt O15294 1-1046)
chain: MASSVGNVADSTEPTKRMLSFQGLAELAHREYQAGDFEAAERHCMQLWRQEPDNTGVLLLLSSIHFQCRRLDRSAHFSTLAIKQNPLLAEAYSNLGNVYKERGQLQEAIEHYRHALRLKPDFIDGYINLAAALVAAGDMEGAVQAYVSALQYNPDLYCVRSDLGNLLKALGRLEEAKACYLKAIETQPNFAVAWSNLGCVFNAQGEIWLAIHHFEKAVTLDPNFLDAYINLGNVLKEARIFDRAVAAYLRALSLSPNHAVVHGNLACVYYEQGLIDLAIDTYRRAIELQPHFPDAYCNLANALKEKGSVAEAEDCYNTALRLCPTHADSLNNLANIKREQGNIEEAVRLYRKALEVFPEFAAAHSNLASVLQQQGKLQEALMHYKEAIRISPTFADAYSNMGNTLKEMQDVQGALQCYTRAIQINPAFADAHSNLASIHKDSGNIPEAIASYRTALKLKPDFPDAYCNLAHCLQIVCDWTDYDERMKKLVSIVADQLEKNRLPSVHPHHSMLYPLSHGFRKAIAERHGNLCLDKINVLHKPPYEHPKDLKLSDGRLRVGYVSSDFGNHPTSHLMQSIPGMHNPDKFEVFCYALSPDDGTNFRVKVMAEANHFIDLSQIPCNGKAADRIHQDGIHILVNMNGYTKGARNELFALRPAPIQAMWLGYPGTSGALFMDYIITDQETSPAEVAEQYSEKLAYMPHTFFIGDHANMFPHLKKKAVIDFKSNGHIYDNRIVLNGIDLKAFLDSLPDVKIVKMKCPDGGDNADSSNTALNMPVIPMNTIAEAVIEMINRGQIQITINGFSISNGLATTQINNKAATGEEVPRTIIVTTRSQYGLPEDAIVYCNFNQLYKIDPSTLQMWANILKRVPNSVLWLLRFPAVGEPNIQQYAQNMGLPQNRIIFSPVAPKEEHVRRGQLADVCLDTPLCNGHTTGMDVLWAGTPMVTMPGETLASRVAASQLTCLGCLELIAKNRQEYEDIAVKLGTDLEYLKKVRGKVWKQRISSPLFNTKQYTMELERLYLQMWEHYAAGNKPDHMIKPVEVTESA
B2: Flag-tagged OGT (enzyme, UniProt O15294 1-1046)
chain: B1 chain

Columns and labels:
[1] = molecular target: T1, vascular endothelial zinc finger 1 (VEZF1), endogenous (human (endogenous in Huh7)); test: co-IP; endogenous proteins in Huh7 cells; lysate supernatant incubated with anti-VEZF1 overnight at 4 °C, protein A/G agarose beads, Western blotting
[2] = molecular target: T2, HA-tagged truncated VEZF1 (1-167aa); test: co-IP; HEK293 cells co-transfected with Flag-OGT and HA-VEZF1 (full-length or truncated), harvested after 48 h; lysate incubated with anti-FLAG, anti-HA or control IgG overnight at 4 °C, protein A/G agarose beads, Western blotting
[3] = molecular target: T3, HA-tagged truncated VEZF1 (168-361aa); test: as above
[4] = molecular target: T4, HA-tagged VEZF1, full-length; test: as above

Binder	binding [1]	binding [2]	binding [3]	binding [4]
B1	binds			
B2		binds	binds	binds
